The text below walks through data of publication PMC13586351.

Sequences of proteins named here, by UniProt entry; tags and fusion partners are left off.
UniProt Q17RN3: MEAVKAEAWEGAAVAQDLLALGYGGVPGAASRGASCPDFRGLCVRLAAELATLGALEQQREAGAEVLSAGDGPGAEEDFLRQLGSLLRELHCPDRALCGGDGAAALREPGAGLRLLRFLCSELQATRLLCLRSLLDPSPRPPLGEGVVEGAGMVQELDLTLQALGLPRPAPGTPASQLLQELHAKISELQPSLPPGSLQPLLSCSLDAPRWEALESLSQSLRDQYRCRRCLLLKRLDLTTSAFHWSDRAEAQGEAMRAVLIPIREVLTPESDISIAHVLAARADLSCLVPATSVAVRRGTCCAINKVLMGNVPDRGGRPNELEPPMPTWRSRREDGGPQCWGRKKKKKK
UniProt Q9BVC5: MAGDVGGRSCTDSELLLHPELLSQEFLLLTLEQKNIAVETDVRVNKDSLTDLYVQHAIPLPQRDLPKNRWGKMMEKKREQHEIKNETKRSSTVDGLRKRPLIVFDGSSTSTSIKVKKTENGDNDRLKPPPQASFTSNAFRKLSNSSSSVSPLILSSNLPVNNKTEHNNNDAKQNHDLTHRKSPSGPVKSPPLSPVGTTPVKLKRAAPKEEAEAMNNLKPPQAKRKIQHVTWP

Results are given in words; binding and its absence hold for the method and conditions named. In cells and extracts the contact can be indirect. These calls come from enrichment with a bait or labelling near it, and not all partners need be listed. No binding means not detected with the bait.

Experiment [1] concerns the target 3xFLAG-tagged FAM98A (HEK293T) (human) (UniProt Q8NCA5). The experiment in a line: affinity purification with mass spectrometry; N-terminally 3xFLAG-tagged FAM98A/B/C overexpressed in HEK293T, anti-FLAG M2 resin, 150 mM KCl, 20 mM HEPES-KOH pH 7.8, 0.1% Tween-20; 3xFLAG-mEGFP as negative control; triplicates.
Experiment [2] deals with 3xFLAG-tagged FAM98C (HEK293T) (human) (UniProt Q17RN3). Described as above.

Regarding “Ashwin (endogenous, HEK293T) (from UniProt Q9BVC5 1-232)”, the binding result in experiment [1] and in experiment [2] was “no binding” in each case.

B1: DDX1 (endogenous, HEK293T) (enzyme, UniProt Q92499 1-740)
chain: MAAFSEMGVMPEIAQAVEEMDWLLPTDIQAESIPLILGGGDVLMAAETGSGKTGAFSIPVIQIVYETLKDQQEGKKGKTTIKTGASVLNKWQMNPYDRGSAFAIGSDGLCCQSREVKEWHGCRATKGLMKGKHYYEVSCHDQGLCRVGWSTMQASLDLGTDKFGFGFGGTGKKSHNKQFDNYGEEFTMHDTIGCYLDIDKGHVKFSKNGKDLGLAFEIPPHMKNQALFPACVLKNAELKFNFGEEEFKFPPKDGFVALSKAPDGYIVKSQHSGNAQVTQTKFLPNAPKALIVEPSRELAEQTLNNIKQFKKYIDNPKLRELLIIGGVAARDQLSVLENGVDIVVGTPGRLDDLVSTGKLNLSQVRFLVLDEADGLLSQGYSDFINRMHNQIPQVTSDGKRLQVIVCSATLHSFDVKKLSEKIMHFPTWVDLKGEDSVPDTVHHVVVPVNPKTDRLWERLGKSHIRTDDVHAKDNTRPGANSPEMWSEAIKILKGEYAVRAIKEHKMDQAIIFCRTKIDCDNLEQYFIQQGGGPDKKGHQFSCVCLHGDRKPHERKQNLERFKKGDVRFLICTDVAARGIDIHGVPYVINVTLPDEKQNYVHRIGRVGRAERMGLAISLVATEKEKVWYHVCSSRGKGCYNTRLKEDGGCTIWYNEMQLLSEIEEHLNCTISQVEPDIKVPVDEFDGKVTYGQKRAAGGGSYKGHVDILAPTVQELAALEKEAQTSFLHLGYLPNQLFRTF
Consider B1, for which the binding result in experiment [1] and in experiment [2] was “binds” throughout.

B2: CGI-99 (endogenous, HEK293T) (protein, UniProt Q9Y224 1-244)
chain: MFRRKLTALDYHNPAGFNCKDETEFRNFIVWLEDQKIRHYKIEDRGNLRNIHSSDWPKFFEKYLRDVNCPFKIQDRQEAIDWLLGLAVRLEYGDNAEKYKDLVPDNSKTADNATKNAEPLINLDVNNPDFKAGVMALANLLQIQRHDDYLVMLKAIRILVQERLTQDAVAKANQTKEGLPVALDKHILGFDTGDAVLNEAAQILRLLHIEELRELQTKINEAIVAVQAIIADPKTDHRLGKVGR
B2: the binding entry in experiment [1] and in experiment [2] was “binds” throughout.

B3: RTCB (endogenous, HEK293T) (enzyme, UniProt Q9Y3I0 1-505)
chain: MSRSYNDELQFLEKINKNCWRIKKGFVPNMQVEGVFYVNDALEKLMFEELRNACRGGGVGGFLPAMKQIGNVAALPGIVHRSIGLPDVHSGYGFAIGNMAAFDMNDPEAVVSPGGVGFDINCGVRLLRTNLDESDVQPVKEQLAQAMFDHIPVGVGSKGVIPMNAKDLEEALEMGVDWSLREGYAWAEDKEHCEEYGRMLQADPNKVSARAKKRGLPQLGTLGAGNHYAEIQVVDEIFNEYAAKKMGIDHKGQVCVMIHSGSRGLGHQVATDALVAMEKAMKRDKIIVNDRQLACARIASPEGQDYLKGMAAAGNYAWVNRSSMTFLTRQAFAKVFNTTPDDLDLHVIYDVSHNIAKVEQHVVDGKERTLLVHRKGSTRAFPPHHPLIAVDYQLTGQPVLIGGTMGTCSYVLTGTEQGMTETFGTTCHGAGRALSRAKSRRNLDFQDVLDKLADMGIAIRVASPKLVMEEAPESYKNVTDVVNTCHDAGISKKAIKLRPIAVIKG
With B3, the binding entry in experiment [1] and in experiment [2] was “binds” throughout.
